2 molecules from patent US6294519A, “Method for treating ischemia” (University of Kentucky Research Foundation, priority 2000, dated 2001) can be followed below.

The subject of this data set is focal middle cerebral arterial occlusion (MCAO) ischemia. Particulars: laser-Doppler flowmetry; for reduction in cerebral blood flow upon induction of ischemia: sustained for 1 h during ischemia, same in control and treated animals.

For `CC(C)C[C@@H](NC(=O)[C@H](Cc1ccccc1)NC(=O)CNC(=O)[C@@H](C)NC(=O)[C@@H](N)Cc1ccc(O)cc1)C(=O)O` [DADLE, Tyr-D-Ala-Gly-Phe-D-Leu-enkephalin], the “time for cerebral blood flow to return to baseline levels after cessation of ischemia” value is on record as at most 0.5 h and the “reduction in cerebral blood flow upon induction of ischemia” value came out at 20%.
The matching figures for `CC(C)[C@H](NC(=O)[C@H](CC(=O)O)NC(=O)[C@H](Cc1ccccc1)NC(=O)[C@@H](C)NC(=O)[C@@H](N)Cc1ccc(O)cc1)C(=O)N[C@H](C(=O)NCC(N)=O)C(C)C` [deltorphin, Tyr-Ala-Phe-Asp-Val-Val-Gly-NH2]: at most 0.5 h and 25%.
